# Source: PMC7430099
# Chains of the proteins cited; added tags and fusions are not shown.
# UniProt Q99720: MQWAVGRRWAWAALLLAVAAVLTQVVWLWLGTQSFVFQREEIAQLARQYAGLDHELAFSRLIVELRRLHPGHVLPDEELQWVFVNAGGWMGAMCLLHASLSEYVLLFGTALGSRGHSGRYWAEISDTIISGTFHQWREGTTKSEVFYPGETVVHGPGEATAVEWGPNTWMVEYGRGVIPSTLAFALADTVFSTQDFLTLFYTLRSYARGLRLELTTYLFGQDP
# These are yes or no findings as the source states them, for the method shown. Binding seen in cells or lysates may run through a third protein. Tags and fused reporters may be left off the sequences shown.
# B1: AT2R-YFP (angiotensin AT2 receptor fused to yellow fluorescent protein) (receptor, UniProt P50052 1-363)
# chain: MKGNSTLATTSKNITSGLHFGLVNISGNNESTLNCSQKPSDKHLDAIPILYYIIFVIGFLVNIVVVTLFCCQKGPKKVSSIYIFNLAVADLLLLATLPLWATYYSYRYDWLFGPVMCKVFGSFLTLNMFASIFFITCMSVDRYQSVIYPFLSQRRNPWQASYIVPLVWCMACLSSLPTFYFRDVRTIEYLGVNACIMAFPPEKYAQWSAGIALMKNILGFIIPLIFIATCYFGIRKHLLKTNSYGKNRITRDQVLKMAAAVVLAFIICWLPFHVLTFLDALAWMGVINSCEVIAVIDLALPFAILLGFTNSCVNPFLYCFVGNRFQQKLRSVFRVPITWLQGKRESMSCRKSSSLREMETFVS
# Molecular target: σ1R-RLuc (sigma-1 receptor fused to Renilla luciferase) (human) (UniProt Q99720)
# Experiment: FRET or BRET; BRET saturation in living HEK-293T cells: constant cDNA for the Rluc donor (AT2R-RLuc 0.9 μg or σ1-RLuc 0.75 μg) and increasing cDNA for the YFP acceptor (0.5 to 4 μg or 0.1 to 4 μg); 20 μg of cell suspension, 5 μM coelenterazine H, read at 485 and 530 nm
binder,measurement,value
B1,binding,no binding
